The reference is the same well before dosing, and untreated signal decays as well.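 Fibroblast labels denote human fibroblasts, mainly primary ones from uterus (C12385, HUF), lung (H6013), bone (Hs27A), adrenal (HADF) and skin (WS1), plus mammary HMF and breast cancer-associated Hs343T. Cancer cells are basal-like or mesenchymal-like triple-negative breast cancer lines. A hit is a response shift exceeding 3x replicate standard deviation. The tissue of the other fibroblasts is not given here.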
System: HCC1143
Experiment: relative JC-1 red fluorescence (viability) vs pre-drug, coculture with fibroblast (fraction); higher = more viable cancer cells
Description: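 JC-1 labelled TNBC cells cocultured 1:1 (1,500 cells each) with CellTrace Violet stained primary or stromal fibroblasts in 384-well plates in FluoroBrite medium, treated with one of 42 anticancer drugs at 0.1, 1, 10 or 100 uM. JC-1 red fluorescence (mitochondrial integrity in cancer cells only) was read by plate reader every 8 h for 72 h. Values are normalised to each well's pre-drug value. The stock of one drug was tenfold lower, so its dose labels may be too high.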

CN(Cc1cnc2nc(N)nc(N)c2n1)c1ccc(C(=O)N[C@@H](CCC(=O)O)C(=O)O)cc1 [Methotrexate]
relative JC-1 red fluorescence
Conditions | 8 h | 16 h | 24 h | 32 h | 40 h | 48 h | 56 h | 64 h | 72 h
10 µM, coculture fibroblast: C12385 | 0.867 | 0.794 | 0.719 | 0.664 | 0.603 | 0.571 | 0.539 | 0.495 | 0.48
10 µM, coculture fibroblast: H6013 | 0.7371 | 0.6427 | 0.6181 | 0.6005 | 0.51476 | 0.5018 | 0.4701 | 0.4527 | 0.437
10 µM, coculture fibroblast: H6019 | 0.787 | 0.71869 | 0.679 | 0.612 | 0.5761 | 0.555 | 0.523 | 0.499 | 0.479
10 µM, coculture fibroblast: H6076 | 0.795 | 0.757 | 0.702 | 0.658 | 0.612 | 0.597 | 0.57 | 0.545 | 0.5568
10 µM, coculture fibroblast: H6231 | 0.81 | 0.853 | 0.768 | 0.618 | 0.655 | 0.602 | 0.546 | 0.496 | 0.4651
10 µM, coculture fibroblast: HADF | 0.718 | 0.648 | 0.637 | 0.657 | 0.575 | 0.567 | 0.542 | 0.523 | 0.51
10 µM, coculture fibroblast: HCFa | 0.7517 | 0.6227 | 0.583 | 0.563 | 0.461 | 0.425 | 0.3641 | 0.327 | 0.294
10 µM, coculture fibroblast: HCPF | 0.83 | 0.744 | 0.72 | 0.673 | 0.634 | 0.606 | 0.566 | 0.536 | 0.524
10 µM, coculture fibroblast: HHSteC | 0.861 | 0.773 | 0.728 | 0.695 | 0.617 | 0.58 | 0.537 | 0.51 | 0.473
10 µM, coculture fibroblast: HMF | 0.776 | 0.755 | 0.678 | 0.593 | 0.571 | 0.542 | 0.498 | 0.466 | 0.434
10 µM, coculture fibroblast: HPFa | 0.8979 | 0.7949 | 0.753 | 0.667 | 0.597 | 0.567 | 0.519 | 0.473 | 0.447
10 µM, coculture fibroblast: HUF | 0.874 | 0.766 | 0.682 | 0.593 | 0.514 | 0.473 | 0.425 | 0.387 | 0.355
10 µM, coculture fibroblast: Hs5 | 0.87398 | 0.8338 | 0.7912 | 0.76 | 0.698 | 0.673 | 0.647 | 0.622 | 0.635
10 µM, coculture fibroblast: Hs27A | 0.706 | 0.634 | 0.601 | 0.646 | 0.519 | 0.508 | 0.481 | 0.463 | 0.481
10 µM, coculture fibroblast: Hs343T | 0.83 | 0.837 | 0.774 | 0.692 | 0.699 | 0.664 | 0.625 | 0.591 | 0.559
10 µM, coculture fibroblast: WS1 | 0.84 | 0.752 | 0.697 | 0.633 | 0.569 | 0.516 | 0.454 | 0.415 | 0.374
100 µM, coculture fibroblast: C12385 | 0.8267 | 0.726 | 0.67 | 0.607 | 0.308 | 0.286 | 0.27 | 0.25 | 0.241
100 µM, coculture fibroblast: H6013 | 0.719 | 0.645 | 0.607 | 0.582 | 0.517 | 0.515 | 0.482 | 0.477 | 0.443
100 µM, coculture fibroblast: H6019 | 0.7884 | 0.708 | 0.663 | 0.602 | 0.557 | 0.535 | 0.492 | 0.461 | 0.435
100 µM, coculture fibroblast: H6076 | 0.811 | 0.792 | 0.771 | 0.752 | 0.711 | 0.706 | 0.679 | 0.665 | 0.674
100 µM, coculture fibroblast: H6231 | 0.819 | 0.8 | 0.732 | 0.631 | 0.635 | 0.596 | 0.55 | 0.512 | 0.489
100 µM, coculture fibroblast: HADF | 0.718 | 0.648 | 0.614 | 0.608 | 0.524 | 0.494 | 0.46 | 0.431 | 0.401
100 µM, coculture fibroblast: HCFa | 0.7721 | 0.699 | 0.648 | 0.617 | 0.532 | 0.501 | 0.45 | 0.415 | 0.374
100 µM, coculture fibroblast: HCPF | 0.806 | 0.8 | 0.738 | 0.638 | 0.6408 | 0.6049 | 0.56 | 0.5201 | 0.4931
100 µM, coculture fibroblast: HHSteC | 0.816 | 0.753 | 0.722 | 0.681 | 0.609 | 0.572 | 0.514 | 0.478 | 0.43
100 µM, coculture fibroblast: HMF | 0.773 | 0.7755 | 0.715 | 0.64 | 0.602 | 0.563 | 0.518 | 0.487 | 0.464
100 µM, coculture fibroblast: HPFa | 0.907 | 0.807 | 0.789 | 0.721 | 0.673 | 0.651 | 0.614 | 0.597 | 0.567
100 µM, coculture fibroblast: HUF | 0.836 | 0.737 | 0.682 | 0.606 | 0.555 | 0.499 | 0.454 | 0.42 | 0.389
100 µM, coculture fibroblast: Hs5 | 0.83554 | 0.814 | 0.764 | 0.738 | 0.659 | 0.627 | 0.607 | 0.585 | 0.586
100 µM, coculture fibroblast: Hs27A | 0.711 | 0.62 | 0.597 | 0.626 | 0.512 | 0.512 | 0.489 | 0.476 | 0.463
100 µM, coculture fibroblast: Hs343T | 0.7995 | 0.807 | 0.732 | 0.65 | 0.615 | 0.571 | 0.524 | 0.485 | 0.448
100 µM, coculture fibroblast: WS1 | 0.824 | 0.717 | 0.671 | 0.59 | 0.532 | 0.491 | 0.447 | 0.415 | 0.389

From the supplement of paper PMC6078165
